From PubChem BioAssay AID720540 (National Center for Advancing Translational Sciences (NCATS), 2013)
In all, about 1,300 compounds went through this assay and about 460 (35%) were called active. Inconclusive results, whose numbers are uncertain, are shown with a selection of clear calls. Calls come from the whole dose curve; as a rule, active = well fitted inhibition curve with a large enough effect; inconclusive = small, poorly fitted or top-dose-only effect; inactive = flat fitted curve, though single readings scatter. Potencies beside an inconclusive call are fits to weak or partial responses and may not hold up.

Amino acid sequences for entries named in this document (tags omitted). A change or cut given only in a name is not applied to a line headed by its entry.
UniProt O00167: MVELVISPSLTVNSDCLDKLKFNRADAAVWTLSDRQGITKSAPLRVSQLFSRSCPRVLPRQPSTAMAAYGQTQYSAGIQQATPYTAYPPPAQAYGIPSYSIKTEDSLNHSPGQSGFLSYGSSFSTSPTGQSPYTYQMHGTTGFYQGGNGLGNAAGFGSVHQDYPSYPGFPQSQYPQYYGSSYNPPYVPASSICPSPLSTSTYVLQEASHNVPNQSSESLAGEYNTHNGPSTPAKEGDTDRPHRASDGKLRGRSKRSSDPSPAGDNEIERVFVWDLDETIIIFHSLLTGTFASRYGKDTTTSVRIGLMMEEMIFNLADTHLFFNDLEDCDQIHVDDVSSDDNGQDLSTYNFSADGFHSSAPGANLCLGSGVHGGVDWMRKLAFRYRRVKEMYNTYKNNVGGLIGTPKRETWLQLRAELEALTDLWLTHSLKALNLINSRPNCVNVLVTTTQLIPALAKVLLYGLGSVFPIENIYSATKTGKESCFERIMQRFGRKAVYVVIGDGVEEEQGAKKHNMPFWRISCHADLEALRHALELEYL

biological target: Protein phosphatase EYA2 (Homo sapiens) (UniProt O00167); assay: qHTS for Inhibitors of the Phosphatase Activity of Eya2: Confirmatory Assay for Cherry-picked Compounds; conditions: purified EYA2 phosphatase activity, qHTS confirmation; series mostly up to 46.1 µM; note: nearly all actives have a fitted effect of over 65% in size
In short: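 Eya2 (0.2 uM working solution) preincubated 10 min at room temperature with compound in pH 7.5 HEPES buffer with MgCl2, BSA, DTT. OMFP added (50 uM working solution), 10 min more; fluorescence 485/525 nm, normalized to EGTA and DMSO.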
Potency is the fitted concentration of half-maximal effect.

Potency, inactive:
CCCC(=O)NC(=S)Nc1sc2c(c1C(N)=O)CCC2
Nc1n[nH]c2cc(=O)n(-c3ccc(Cl)cc3)nc12
Cc1ccccc1NC(=O)C1CCN(C(=O)N2CCOc3ccccc32)CC1
O=C(NC1=C(Nc2ccc(F)cc2)C(=O)c2ccccc2C1=O)c1ccc(Cl)cc1
O=C(CNC(=O)c1cccs1)OCC(=O)c1ccc(Cl)cc1
CC1=CC(C)(C)Nc2ccc(OC(=O)CN3C(=O)c4ccccc4C3=O)cc21
Cc1nc([N+](=O)[O-])cn1CC(O)c1ccc2c(c1)OCO2 (stereo not drawn)
COc1ccc(NC(=O)c2cc(-c3ccco3)nc3ccccc23)cn1
Cc1ccc(-c2csc(N3CCN(CCCn4c(C(F)(F)F)nc5ccccc54)CC3)n2)cc1
COc1cc(N)c(Cl)cc1C(=O)N[C@H]1CCN(CCCOc2ccc(F)cc2)C[C@H]1OC
Cc1ccc(CNC(=O)c2ccc(-n3cccc3)cc2)cc1
COc1ccc(-c2cc(C3CCNCC3)[nH]n2)cc1
COc1ccc(Nc2nc(N)nc(CSC(=S)N3CCCCC3)n2)cc1
Cc1ccc(C2CC(c3ccc(Br)cc3)=NN2C(=O)CSC2=NN3CCCC(=O)N=C3S2)cc1 (stereo not drawn)
Cc1cc2oc(C(=O)N3CCN(Cc4ccccc4)CC3)c(C)c2cc1C
Cc1nc2c(C(=O)Nc3ccc(N4CCCC(O)C4)cc3)snc2c(=O)[nH]1 (stereo not drawn)
CC(=O)Nc1ccc(NC(=O)COc2ncnc3ccccc23)cc1
COc1ccccc1Nc1nc(-c2ccc3c(c2)NC(=O)CO3)cs1
O=S(=O)(NCCSCc1ccc(Cl)c(Cl)c1)c1ccc2c(c1)OCCO2
C/C(N)=C(/C#N)C(=O)CSc1nnc(Nc2cccc(C)c2)s1
CC12CC3(C)CC(C)(C1)CC(C(=O)NC(=S)N1CCOCC1)(C2)C3
COCCNC(=O)CCC(=O)NNc1nc2ccccc2c2nc(-c3ccccc3)nn12
N#C/C(=C/c1ccc(OC(=O)c2ccc(Br)s2)cc1)c1nc2ccccc2[nH]1
O=C(Nc1ccccc1)C(Cl)C(=O)c1ccccc1 (stereo not drawn)

Potency, inconclusive:
NNC(=O)c1oc2nc(-c3ccco3)cc(-c3ccco3)c2c1N 5.36 µM [inhibitor, full curve]
O=C(O)C(Oc1ccc2c(c1)oc(=O)c1ccccc12)c1ccccc1 (stereo not drawn) 19 µM [inhibitor, partial curve]
O=C(Nc1nc(-c2ccc(S(=O)(=O)N3CCOCC3)cc2)cs1)c1ccccc1 7.57 µM [inhibitor, partial curve]
Cc1cc2nc(-c3ccco3)c(Cc3cccc(F)c3)n2c(C)c1Br 16.9 µM [inhibitor, partial curve]
CC(NC(=O)CN(C)S(=O)(=O)c1ccc2c(c1)c(=O)n(C)c(=O)n2C)c1ccccc1 (stereo not drawn) 19 µM [inhibitor, partial curve]
CC(C)n1nc(C(=O)Nc2ccc3c(c2)OCO3)c2ccccc2c1=O 5.36 µM [inhibitor, partial curve]
C#CCn1cc(/C=C2\NC(=O)NC2=O)c2ccccc21 2.69 µM [inhibitor, full curve]
O=[N+]([O-])c1cc2c(cc1CN1CCN(c3ccccc3)CC1)OCO2 21.3 µM [inhibitor, partial curve]
O=C(O)c1cccc(NC(=O)c2ccc(CN3C(=O)c4ccccc4C3=O)cc2)c1 21.3 µM [inhibitor, partial curve]
COc1ccc(C2C3=C(CCCC3=O)N(CC(=O)O)C3=C2C(=O)CCC3)cc1Br 19 µM [inhibitor, partial curve]
CS(=O)(=O)c1cccc(C(=O)Nc2cccc(-c3nc4ccccc4[nH]3)c2)c1 15.1 µM [inhibitor, partial curve]
O=C(Nc1nccs1)c1ccc[nH]c1=O 16.9 µM [inhibitor, partial curve]
CC(C)(C)C(=O)Nc1nnc(-c2ccncc2)o1 19 µM [inhibitor, single point]
Cc1ccc(C(=O)Nc2ccccc2C(=O)O)cc1NC(=O)COc1c(C)cccc1C 19 µM [inhibitor, partial curve]
CCOc1ccc(C(NC(C)=O)c2cc(Cl)c3cccnc3c2O)cc1 (stereo not drawn) 0.536 µM [inhibitor, full curve]
CCN(CC)CC(=O)Nc1cccc2c1C(=O)c1ccccc1C2=O 1.9 µM [inhibitor, partial curve]
Brc1ccc2c(c1)C(c1cccnc1)=NNC(c1cccs1)=N2 19 µM [inhibitor, partial curve]
CCOc1ccc(/C=N/n2nnnc2N)cc1OCC 12 µM [inhibitor, partial curve]
COc1ccc(CCNc2nc(-c3ccc(O)cc3)cs2)cc1OC 21.3 µM [inhibitor, partial curve]
COc1ccc(Cl)cc1NC(=O)CCCn1c(=O)c2cccn2c2cccnc21 13.5 µM [inhibitor, partial curve]
COc1cc(C(=S)N2CCOCC2)ccc1OC(=O)c1ccc([N+](=O)[O-])cc1[N+](=O)[O-] 21.3 µM [inhibitor, partial curve]
O=C1NC[C@@H](CCCCN2C[C@H](Cc3ccccc3)N(CCC3CCCCC3)C(=O)C2=O)N(CCc2ccc(O)cc2)C1=O 21.3 µM [inhibitor, partial curve]
COc1ccc(C(=O)Nc2cccc(S(=O)(=O)NC3=NCCCCC3)c2)cc1 19 µM [inhibitor, partial curve]
CN1CCN(S(=O)(=O)c2cccc(C(=O)Oc3ccc(Br)cc3F)c2)CC1 6.01 µM [inhibitor, partial curve]
COc1ccc(-c2ccc(SCc3ccccn3)nn2)cc1OC 19 µM [inhibitor, partial curve]
Nc1ccc(O)cc1 19 µM [inhibitor, partial curve]
COc1ccc2c(c1)c(C(O)CN1CCC(Cc3ccccc3)CC1)c(C)n2C (stereo not drawn) 12 µM [inhibitor, partial curve]
COc1ccc(N2CCN(C(CNC(=O)C(=O)NCCCn3ccnc3)c3cccnc3)CC2)cc1 (stereo not drawn) 16.9 µM [inhibitor, single point]
Cn1c(N)c(C(=O)CSc2nc(N)cc(N)n2)c(=O)n(C)c1=O 19 µM [inhibitor, partial curve]
CN1/C(=c2/s/c(=C3/C(=O)N(c4ccccc4)NC3=Nc3ccccc3)n(C)c2=O)C(C)(C)c2ccccc21 5.36 µM [inhibitor, partial curve]
O=C(O)c1cc2nc3c(c(C(F)(F)F)n2n1)CCc1ccccc1-3 21.3 µM [inhibitor, partial curve]
COc1ccc(S(=O)(=O)N2CCCCCC2)cc1C(=O)Nc1cc(C)ccn1 16.9 µM [inhibitor, partial curve]
O=C(NCc1cccnc1)c1nc(-c2ccccc2)n(-c2ccccc2)n1 15.1 µM [inhibitor, partial curve]
O=C(CN1CCN(Cc2ccccc2)CC1)Nc1ccc([N+](=O)[O-])cc1C(=O)Nc1ccccc1F 19 µM [inhibitor, partial curve]
O=S(=O)(c1ccc(F)cc1)c1nc(-c2ccco2)oc1Nc1ccc(F)cc1 13.5 µM [inhibitor, partial curve]
N=C1/C(=C\c2ccc(OC(=O)c3ccccc3)cc2)C(=O)N=C2SC(N3CCOCC3)=NN12 21.3 µM [inhibitor, partial curve]
O=C(Oc1ccc(-c2nnco2)cc1)c1ccco1 15.1 µM [inhibitor, partial curve]

Arranged by length of the SMILES (ascending): some entries from above
Potency, inconclusive:
COc1ccc(-c2ccc(SCc3ccccn3)nn2)cc1OC 19 µM [inhibitor, partial curve]
CCN(CC)CC(=O)Nc1cccc2c1C(=O)c1ccccc1C2=O 1.9 µM [inhibitor, partial curve]
O=C(NCc1cccnc1)c1nc(-c2ccccc2)n(-c2ccccc2)n1 15.1 µM [inhibitor, partial curve]

Next part.

Potency, active:
O=S(=O)(c1cc(O)ccc1O)c1cccc2c(S(=O)(=O)c3cc(O)ccc3O)cccc12 15.1 µM
COc1ccc(NC(=O)/C(C#N)=C/c2ccc(-c3ccc(Cl)c(C(=O)O)c3)o2)cc1 19 µM
COC(=O)c1ccccc1NC1=C/C(=N\S(=O)(=O)c2cccs2)c2ccccc2C1=O 1.69 µM
CCN(C)c1ccc(/C=C/c2ccnc3ccccc23)cc1 21.3 µM
C[N+](C)(CCCCCI)c1ccc(/C=C/c2nc3ccccc3s2)cc1 13.5 µM
Cc1ccc2cc(NC(=O)CC(CC(=O)O)c3ccccc3)ccc2n1 (stereo not drawn) 19 µM
COc1cc(N=c2oc3c(C)ncc(CO)c3cc2C(N)=O)cc(OC)c1OC 6.75 µM
COc1ccc(/C=C(/C#N)C(=O)Nc2ccc(O)cc2)cc1C(=O)O 9.53 µM
COC(=O)c1ccccc1NC(=S)NC(=O)c1ccc(C)cc1 13.5 µM
CCN(CC)c1ccc(/C=C2\CCC(/C=C(\C#N)C(=O)Nc3ccccc3F)=C2N2CCOCC2)cc1 3.01 µM
Cc1cc(Nc2ccccc2C(=O)O)n(-c2cccc(Cl)c2)n1 6.75 µM
Cc1ccc(C(=O)N/C(=C\c2ccco2)C(=O)NCCCn2ccnc2)cc1 4.26 µM
